Data reported in publication PMC8209095.
These are yes or no findings as the source states them, for the method shown. Binding seen in cells or lysates may run through a third protein. Some binding calls cover weakened binding; strength is not graded here. For part of these data: Where a sequence is shown, tags or fusion partners need not be part of it.

Sequences of proteins named here, by UniProt entry; tags and fusion partners are left off.
UniProt P12956: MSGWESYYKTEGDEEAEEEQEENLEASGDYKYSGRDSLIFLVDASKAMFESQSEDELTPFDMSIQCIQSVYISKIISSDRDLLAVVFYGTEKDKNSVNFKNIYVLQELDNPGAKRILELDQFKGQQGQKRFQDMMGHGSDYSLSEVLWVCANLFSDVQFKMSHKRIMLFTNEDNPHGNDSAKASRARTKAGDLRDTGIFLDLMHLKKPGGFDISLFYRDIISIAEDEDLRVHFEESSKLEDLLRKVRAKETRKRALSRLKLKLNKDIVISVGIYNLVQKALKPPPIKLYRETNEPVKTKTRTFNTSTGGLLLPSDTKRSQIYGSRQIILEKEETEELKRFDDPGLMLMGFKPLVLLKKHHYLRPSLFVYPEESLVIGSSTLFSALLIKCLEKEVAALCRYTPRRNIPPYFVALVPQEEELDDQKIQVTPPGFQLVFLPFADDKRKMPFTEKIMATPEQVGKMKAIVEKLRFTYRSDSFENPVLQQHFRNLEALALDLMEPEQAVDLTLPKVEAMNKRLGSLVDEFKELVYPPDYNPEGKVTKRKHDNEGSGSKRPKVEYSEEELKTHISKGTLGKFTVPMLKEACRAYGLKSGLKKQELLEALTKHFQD
UniProt P13010: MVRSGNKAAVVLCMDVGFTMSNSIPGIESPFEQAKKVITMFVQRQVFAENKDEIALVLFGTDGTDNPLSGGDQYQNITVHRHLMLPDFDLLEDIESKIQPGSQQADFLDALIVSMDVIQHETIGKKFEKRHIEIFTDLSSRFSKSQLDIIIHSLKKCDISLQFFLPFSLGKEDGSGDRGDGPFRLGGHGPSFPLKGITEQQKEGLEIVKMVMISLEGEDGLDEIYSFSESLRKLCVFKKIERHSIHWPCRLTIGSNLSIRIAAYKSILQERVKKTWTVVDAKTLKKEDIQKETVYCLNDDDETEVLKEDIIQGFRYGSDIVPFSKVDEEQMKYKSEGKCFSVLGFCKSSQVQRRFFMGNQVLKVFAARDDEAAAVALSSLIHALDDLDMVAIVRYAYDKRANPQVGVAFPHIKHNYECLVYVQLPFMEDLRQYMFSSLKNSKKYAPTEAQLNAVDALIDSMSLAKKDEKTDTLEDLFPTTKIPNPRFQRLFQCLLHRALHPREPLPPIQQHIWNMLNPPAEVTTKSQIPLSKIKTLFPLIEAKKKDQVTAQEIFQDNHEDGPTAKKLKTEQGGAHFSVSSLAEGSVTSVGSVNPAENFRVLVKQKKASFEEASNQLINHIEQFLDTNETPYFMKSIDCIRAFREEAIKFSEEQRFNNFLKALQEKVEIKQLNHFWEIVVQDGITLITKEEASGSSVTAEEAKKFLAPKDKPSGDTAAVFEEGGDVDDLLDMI

T1: O-GlcNAcase (OGA), full length, SFB-tagged (human) (UniProt O60502)
T1 sequence: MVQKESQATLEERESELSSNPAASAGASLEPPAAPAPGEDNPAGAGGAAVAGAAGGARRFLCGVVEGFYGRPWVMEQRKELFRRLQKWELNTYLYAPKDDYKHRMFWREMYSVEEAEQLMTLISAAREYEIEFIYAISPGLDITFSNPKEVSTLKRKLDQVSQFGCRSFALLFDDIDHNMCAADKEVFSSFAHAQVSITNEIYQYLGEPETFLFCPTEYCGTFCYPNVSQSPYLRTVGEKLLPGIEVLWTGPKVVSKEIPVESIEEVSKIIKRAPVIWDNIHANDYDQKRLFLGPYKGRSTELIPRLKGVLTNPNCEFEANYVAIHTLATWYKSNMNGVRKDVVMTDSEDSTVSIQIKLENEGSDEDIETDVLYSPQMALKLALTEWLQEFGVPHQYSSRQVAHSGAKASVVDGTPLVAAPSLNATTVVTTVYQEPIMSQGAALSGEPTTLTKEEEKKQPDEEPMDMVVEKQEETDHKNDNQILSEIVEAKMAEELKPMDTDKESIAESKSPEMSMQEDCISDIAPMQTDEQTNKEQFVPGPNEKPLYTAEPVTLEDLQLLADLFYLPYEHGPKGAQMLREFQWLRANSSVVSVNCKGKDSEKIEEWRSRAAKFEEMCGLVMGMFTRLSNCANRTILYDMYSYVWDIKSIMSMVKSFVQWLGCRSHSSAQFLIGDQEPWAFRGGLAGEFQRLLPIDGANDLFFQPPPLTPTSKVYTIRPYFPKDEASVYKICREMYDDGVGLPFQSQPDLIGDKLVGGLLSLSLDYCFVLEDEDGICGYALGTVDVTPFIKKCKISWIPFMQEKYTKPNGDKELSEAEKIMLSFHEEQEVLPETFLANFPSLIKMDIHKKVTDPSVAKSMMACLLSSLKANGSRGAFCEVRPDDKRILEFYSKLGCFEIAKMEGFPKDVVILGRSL

T2: full-length human OGA (OGA-FL) expressed in 293T cells (human) (UniProt O60502)
T2 sequence: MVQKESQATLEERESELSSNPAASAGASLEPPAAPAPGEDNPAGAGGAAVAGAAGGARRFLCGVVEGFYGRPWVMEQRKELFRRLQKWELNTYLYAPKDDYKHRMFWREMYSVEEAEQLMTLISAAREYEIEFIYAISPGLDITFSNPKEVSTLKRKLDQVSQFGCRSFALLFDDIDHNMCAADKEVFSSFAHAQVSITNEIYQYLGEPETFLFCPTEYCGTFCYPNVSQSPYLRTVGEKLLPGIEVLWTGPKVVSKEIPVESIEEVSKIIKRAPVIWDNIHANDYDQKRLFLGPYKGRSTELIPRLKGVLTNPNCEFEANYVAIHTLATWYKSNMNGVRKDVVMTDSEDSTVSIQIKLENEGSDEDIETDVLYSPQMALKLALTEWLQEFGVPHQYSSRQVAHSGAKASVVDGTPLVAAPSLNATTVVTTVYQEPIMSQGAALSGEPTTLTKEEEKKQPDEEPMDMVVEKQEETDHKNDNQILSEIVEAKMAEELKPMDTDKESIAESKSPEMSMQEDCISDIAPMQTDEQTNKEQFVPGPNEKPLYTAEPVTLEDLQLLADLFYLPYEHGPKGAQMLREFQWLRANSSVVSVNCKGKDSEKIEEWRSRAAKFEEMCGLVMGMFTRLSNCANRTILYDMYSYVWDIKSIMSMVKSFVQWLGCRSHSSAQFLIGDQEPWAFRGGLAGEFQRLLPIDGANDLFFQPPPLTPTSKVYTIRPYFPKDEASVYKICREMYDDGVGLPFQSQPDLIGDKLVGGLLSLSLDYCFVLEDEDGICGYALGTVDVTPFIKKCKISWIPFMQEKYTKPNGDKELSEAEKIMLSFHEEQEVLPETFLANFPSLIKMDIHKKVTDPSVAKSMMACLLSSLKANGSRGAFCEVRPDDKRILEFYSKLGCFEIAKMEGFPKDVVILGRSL


Columns and labels:
[1] = target: T1, O-GlcNAcase (OGA), full length, SFB-tagged (human); experiment: co-IP; tagged OGA precipitated on streptavidin from lysates of cells treated with mock, OGT inhibitor OSMI-1 or TMG; western blot for NONO, Ku70, Ku80 and FLAG
[2] = target: T2, full-length human OGA (OGA-FL) expressed in 293T cells (human); experiment: co-IP; SFB-OGA constructs expressed in 293T cells, with Myc-tagged or endogenous NONO, Ku70, Ku80; lysed with NETN300 buffer; IP and western blot; with or without 10 Gy of IR

Row | Molecule | binding [1] | binding [2]
1 | Ku70, endogenous (from UniProt P12956 1-609) | binds | 
2 | Ku80, endogenous (from UniProt P13010 1-732) | binds | 
3 | endogenous Ku70 (from UniProt P12956 1-609) |  | binds
4 | endogenous Ku80 (from UniProt P13010 1-732) |  | binds
5 | NONO, endogenous (protein, UniProt Q15233 1-471) MQSNKTFNLEKQNHTPRKHHQHHHQQQHHQQQQQQPPPPPIPANGQQASSQNEGLTIDLKNFRKPGEKTFTQRSRLFVGNLPPDITEEEMRKLFEKYGKAGEVFIHKDKGFGFIRLETRTLAEIAKVELDNMPLRGKQLRVRFACHSASLTVRNLPQYVSNELLEEAFSVFGQVERAVVIVDDRGRPSGKGIVEFSGKPAARKALDRCSEGSFLLTTFPRPVTVEPMDQLDDEEGLPEKLVIKNQQFHKEREQPPRFAQPGSFEYEYAMRWKALIEMEKQQQDQVDRNIKEAREKLEMEMEAARHEHQVMLMRQDLMRRQEELRRMEELHNQEVQKRKQLELRQEEERRRREEEMRRQQEEMMRRQQEGFKGTFPDAREQEIRMGQMAMGGAMGINNRGAMPPAPVPAGTPAPPGPATMMPDGTLGLTPPTTERFGQAATMEGIGAIGGTPPAFNRAAPGAEFAPNKRRRY | binds | 
6 | endogenous NONO (protein, UniProt Q15233 1-471) MQSNKTFNLEKQNHTPRKHHQHHHQQQHHQQQQQQPPPPPIPANGQQASSQNEGLTIDLKNFRKPGEKTFTQRSRLFVGNLPPDITEEEMRKLFEKYGKAGEVFIHKDKGFGFIRLETRTLAEIAKVELDNMPLRGKQLRVRFACHSASLTVRNLPQYVSNELLEEAFSVFGQVERAVVIVDDRGRPSGKGIVEFSGKPAARKALDRCSEGSFLLTTFPRPVTVEPMDQLDDEEGLPEKLVIKNQQFHKEREQPPRFAQPGSFEYEYAMRWKALIEMEKQQQDQVDRNIKEAREKLEMEMEAARHEHQVMLMRQDLMRRQEELRRMEELHNQEVQKRKQLELRQEEERRRREEEMRRQQEEMMRRQQEGFKGTFPDAREQEIRMGQMAMGGAMGINNRGAMPPAPVPAGTPAPPGPATMMPDGTLGLTPPTTERFGQAATMEGIGAIGGTPPAFNRAAPGAEFAPNKRRRY |  | binds
